# Measured values published in PubChem BioAssay AID662 (National Center for Advancing Translational Sciences (NCATS), 2007).
# The other results are listed elsewhere or left out. These are further read-outs of the screen, such as a control signal, another cell line or another target. No call is given for them. The list favours compounds with an active or inconclusive main result. Potencies come from curve fits of mixed quality, noted in brackets.
# Experiment: Cell signaling CRE-BLA (Fsk stim)
# Details: CHO CRE-bla reporter (cAMP response element driving beta-lactamase), forskolin EC10, beta-lactamase ratio; measured here: 460 nm blue channel
# Procedure, shortened: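 Cells were plated overnight at 37 °C, exposed to compound titrations plus EC10 NKH 477 for 3 h, then given CCF4 dye for 2 h at room temperature. Blue/green (460/530 nm) ratio was converted to %Activity and AC50 values calculated.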
row,Structure (SMILES),AC50
1,Cc1cc(C)nc(SCc2ccccc2C#N)n1,"12.6 µM [rising, single point]"
2,CCC1CCCCN1C(=O)CSc1nc(N)c(NC(=O)c2ccc(OC)c(OC)c2)c(=O)[nH]1 (stereo not drawn),"10 µM [rising, partial curve]"
3,CCc1ccc(N2CC(C(=O)NC3=NCCS3)CC2=O)cc1 (stereo not drawn),"3.16 µM [falling, single point]"
4,O=C(c1ccccc1)c1cccn1CC(=O)N1CCN(c2ccc(F)cc2)CC1,"0.00398 µM [falling, full curve]"
5,NCCCCCc1nnc(SCC(=O)Nc2cccc(Cl)c2)o1,"0.126 µM [rising, single point]"
6,N#Cc1ccccc1OCC(=O)Nc1c(C(=O)C2CC2)oc2ccccc12,"3.16 µM [rising, full curve]"
7,O=C(Nc1nnc(Cc2ccccc2)s1)c1cccs1,"10 µM [rising, partial curve]"
8,O=c1ccc(-c2ccccc2)n[nH]1,"0.0631 µM [rising, partial curve, poor fit]"
9,COc1ccc(-c2nnc(SCC(=O)N3CCc4ccccc4C3)o2)cc1,"5.01 µM [falling, single point]"
10,Cc1ccc(C)c2[nH]c(=O)c(CN(Cc3ccco3)C(=O)Nc3ccccc3)cc12,"5.01 µM [falling, partial curve, poor fit]"
11,CCNc1cc2n(c(=O)n1)CCc1cc(OC)c(OC)cc1-2,"10 µM [rising, partial curve]"
12,COCCn1c(=O)c(-c2cc(F)cc(F)c2)nc2cncnc21,"12.6 µM [rising, partial curve]"
13,CCc1nnc(NC(=O)CSc2nnc(CNc3ccc(F)cc3)n2C2CCCCC2)s1,"10 µM [falling, single point]"
14,COc1ccc(S(=O)(=O)N(Cc2ccccc2)Cc2nc(-c3ccccc3)no2)cc1,"15.8 µM [falling, partial curve]"
15,COc1ccc(NC(=O)CCc2nc(-c3ccccc3F)no2)cc1,"0.501 µM [falling, full curve]"
16,CCCc1c(C)c2ccccc2[nH]c1=O,"10 µM [rising, partial curve]"
17,O=C(c1ccncc1)N1CCC2(CCCN(C(c3ccccc3)c3ccccc3)C2)CC1,"12.6 µM [rising, partial curve]"
18,O=C(Oc1cccnc1)c1ccc(Cl)c(Cl)c1,"0.00631 µM [falling, full curve, poor fit]"
19,COc1ccc(S(=O)(=O)N2CCN(c3ccc(C)cc3C)CC2)cc1OC,"25.1 µM [falling, single point]"
20,COc1ccc(Oc2ncc3ncc(=O)n(CCC#N)c3n2)cc1,"12.6 µM [rising, single point]"
21,CCN(CCNC(=O)CS(=O)(=O)Cc1nc(-c2cccc(OC)c2)oc1C)c1ccccc1,"12.6 µM [falling, partial curve]"
22,COc1ccccc1-c1nc(C#N)c(N2CCC(Cc3ccccc3)CC2)o1,"3.16 µM [rising, partial curve]"

row,Structure (SMILES),AC50
1,COc1ccc(-c2cc(NCc3ccccn3)n3ncnc3n2)cc1,"0.794 µM [rising, partial curve]"
2,CN1/C(=C\P(=O)(N(C)C)N(C)C)C(C)(C)c2ccccc21,"5.01 µM [falling, single point]"
3,Cc1ccc(C)c2[nH]c(=O)c(CCNC(=O)CC(C)(C)C)cc12,"10 µM [rising, partial curve]"
4,CCCn1c(N2CCN(CC(=O)c3c(C)n(C)c4ccccc34)CC2)nc2c1c(=O)[nH]c(=O)n2C,"6.31 µM [rising, partial curve]"
5,O=C(Nc1ccccc1)N(Cc1ccc2c(c1)OCO2)Cc1nc2ccccc2c(=O)[nH]1,"5.01 µM [falling, single point]"
6,O=C(NC1CCSC1=O)c1ccc(Cl)cc1 (stereo not drawn),"1.26 µM [falling, partial curve]"
7,NC(=O)C1CCN(C(=O)c2cc(S(=O)(=O)N3CCOCC3)c(Cl)cc2Cl)CC1,"12.6 µM [falling, single point]"
8,O=C(NCc1n[nH]c(=S)n1-c1cccc(Cl)c1)c1ccc(S(=O)(=O)N2CCCC2)cc1,"0.126 µM [falling, full curve, poor fit]"
9,Cc1nc(N2CCN(Cc3ccc4c(c3)OCO4)CC2)nc2c1C(=O)CC(c1ccco1)C2 (stereo not drawn),"1.26 µM [rising, full curve, poor fit]"
10,c1ccc(Nc2nc(-c3cccnc3)nc3ccccc23)cc1,"5.01 µM [rising, full curve]"
11,O=C(Nc1cc(C(=O)N2CCCC2)ccc1N1CCCC1)c1ccccc1F,"12.6 µM [falling, partial curve]"
12,CCC(C)(C)n1nnnc1C(c1cccc(C#N)c1)N1CCN(c2cc(C)ccc2C)CC1 (stereo not drawn),"0.0794 µM [falling, single point]"
13,COc1ccc(NC(=O)N(CCC(C)C)C(C)c2ccccn2)c(OC)c1 (stereo not drawn),"12.6 µM [rising, partial curve]"
14,Oc1ccc(C=Nc2cccc3ncccc23)c(O)c1,"25.1 µM [rising, single point]"
15,CCOC(=O)C1CCCN(C(=O)C2CCN(S(=O)(=O)CC)CC2)C1 (stereo not drawn),"0.316 µM [falling, single point]"
16,Cn1c(=O)c(-c2cccc(F)c2)nc2cncnc21,"10 µM [rising, partial curve]"
17,CCOC(=O)c1[nH]c(C)c(C(=O)NC2CCN(C(=O)OCC)CC2)c1C,"2.51 µM [rising, single point]"
18,COc1cccc(-c2nn(C)c3sc(C(=O)NCc4ccccn4)cc23)c1,"3.98 µM [rising, partial curve]"
19,O=C(Cn1c2c(c(-c3ccccc3)cc1=O)CCCC2)N1CCCCCC1,"20 µM [falling, single point]"
20,CCOc1ccc(OCC)c(NC(=O)CSc2nc3cccnc3n2C)c1,"2 µM [falling, partial curve]"
21,Cc1ccc(S(=O)(=O)N2CCC(C(=O)N3CCC(C(=O)NCc4cccnc4)CC3)CC2)cc1,"12.6 µM [rising, partial curve]"

# Pulled by structure from the list above (2):
row,Structure (SMILES),AC50
9,COc1ccc(-c2nnc(SCC(=O)N3CCc4ccccc4C3)o2)cc1,"5.01 µM [falling, single point]"
4,O=C(c1ccccc1)c1cccn1CC(=O)N1CCN(c2ccc(F)cc2)CC1,"0.00398 µM [falling, full curve]"
